The results in this text go back to patent US20140294825A1.

The chains behind the UniProt entries cited, without tags or fusion partners. Residues count along the entry.
UniProt P08637, residues 17-254: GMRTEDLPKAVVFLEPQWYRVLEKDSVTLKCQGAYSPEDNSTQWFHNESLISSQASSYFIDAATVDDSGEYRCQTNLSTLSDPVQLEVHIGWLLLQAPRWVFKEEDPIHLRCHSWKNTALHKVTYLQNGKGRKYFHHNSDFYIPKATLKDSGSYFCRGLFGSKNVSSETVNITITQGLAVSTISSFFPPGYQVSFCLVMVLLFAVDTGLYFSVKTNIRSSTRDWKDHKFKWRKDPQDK

No constants are given. Whether binding was seen depends on the method and setting. Some results given as binding are weak or reduced against the parent protein; the word gives no strength.

For the assay, the target named is human CD16 (human) (UniProt P08637). The assay can be described thus: flow cytometry on HEK293 cells transiently expressing human CD16, 1 µg/ml antibody. A general note: Flow cytometry measures light scatter and fluorescence of single cells or particles in a stream.

B1: Ch9G6-IgG3D (antibody)
heavy: QVQLQQSGPELVKPGASVKISCKASGYTFSTSWMNWVKQRPGQGLEWIGRIYPGDGDTNYNGKFKGKATLTADKSSNTAYMQLSSLTSVDSAVYFCERFYYGNTFAMDYWGQGTSVTVSSASTKGPSVFPLAPCSRSTSGGTAALGCLVKDYFPEPVTVSWNSGALTSGVHTFPAVLQSSGLYSLSSVVTVPSSSLGTQTYTCNVNHKPSNTKVDKRVEPKSCDTPPPCPRCPAPELLGGPSVFLFPPKPKDTLMISRTPEVTCVVVDVSHEDPEVQFKWYVDGVEVHNAKTKPREEQYNSTFRVVSVLTVLHQDWLNGKEYKCKVSNKALPAPIEKTISKTKGQPREPQVYTLPPSREEMTKNQVSLTCLVKGFYPSDIAVEWESSGQPENNYNTTPPMLDSDGSFFLYSKLTVDKSRWQQGNIFSCSVMHEALHNRFTQKSLSLSPGK
light: DVLMTQIPLSLPVSLGDQASISCRSSQSIVHSNGNTYLEWYLQKPGQSPKLLIYKVSNRFSGVPDRFSGSGSGTDFTLKISRVEAEDLGVYYCFQGSHVPFTFGSGTKLEIKRTVAAPSVFIFPPSDEQLKSGTASVVCLLNNFYPREAKVQWKVDNALQSGNSQESVTEQDSKDSTYSLSSTLTLSKADYEKHKVYACEVTHQGLSSPVTKSFNRGEC
B1: the binding result was “binds”.

B2: Ch9G6-MVIgG3D (antibody)
heavy: QVQLQQSGPELVKPGASVKISCKASGYTFSTSWMNWVKQRPGQGLEWIGRIYPGDGDTNYNGKFKGKATLTADKSSNTAYMQLSSLTSVDSAVYFCERFYYGNTFAMDYWGQGTSVTVSSASTKGPSVFPLAPCSRSTSGGTAALGCLVKDYFPEPVTVSWNSGALTSGVHTFPAVLQSSGLYSLSSVVTVPSSSLGTQTYTCNVNHKPSNTKVDKRVEPKSCDTPPPCPRCPAPELLGGPSVFLFPPKPKDTLMISRTPEVTCVVVDVSHEDPEVQFKWYVDGVEVHNAKTKPREEQYNSTFRVVSVLTVLHQDWLNGKEYKCKVSNKALPAPIEKTISKTKGQPREPQVYTLPPSREEMTKNQVSLTCLVKGFYPSDIAVEWESSGQPENNYNTTPPMLDSDGSFFLYSKLTVDKSRWQQGNIFSCSVMHEALHNRFTQKSLSLSPGKDQDTAIRVFAIPPSFASIFLTKSTKLTCLVTDLTTYDSVTISWTRQNGEAVKTHTNISESHPNATFSAVGEASICEDDWNSGERFTCTVTHTDLPSPLKQTISRPKGVALHRPDVYLLPPAREQLNLRESATITCLVTGFSPADVFVQWMQRGQPLSPEKYVTSAPMPEPQAPGRYFAHSILTVSEEEWNTGETYTCVVAHEALPNRVTERTVDKSTGKPTLYNVSLVMSDTAGTCY
light: DVLMTQIPLSLPVSLGDQASISCRSSQSIVHSNGNTYLEWYLQKPGQSPKLLIYKVSNRFSGVPDRFSGSGSGTDFTLKISRVEAEDLGVYYCFQGSHVPFTFGSGTKLEIKRTVAAPSVFIFPPSDEQLKSGTASVVCLLNNFYPREAKVQWKVDNALQSGNSQESVTEQDSKDSTYSLSSTLTLSKADYEKHKVYACEVTHQGLSSPVTKSFNRGEC
For the molecule B2, the binding result is given as “binds”.
